In PMC9152703:
Results are given in words; binding and its absence hold for the method and conditions named. Binding seen in cells or lysates may run through a third protein. Tags and fused reporters may be left off the sequences shown.

T1: PCDH19-V5 (full-length protocadherin-19 with V5 tag) (human) (UniProt Q8TAB3)
T1 sequence: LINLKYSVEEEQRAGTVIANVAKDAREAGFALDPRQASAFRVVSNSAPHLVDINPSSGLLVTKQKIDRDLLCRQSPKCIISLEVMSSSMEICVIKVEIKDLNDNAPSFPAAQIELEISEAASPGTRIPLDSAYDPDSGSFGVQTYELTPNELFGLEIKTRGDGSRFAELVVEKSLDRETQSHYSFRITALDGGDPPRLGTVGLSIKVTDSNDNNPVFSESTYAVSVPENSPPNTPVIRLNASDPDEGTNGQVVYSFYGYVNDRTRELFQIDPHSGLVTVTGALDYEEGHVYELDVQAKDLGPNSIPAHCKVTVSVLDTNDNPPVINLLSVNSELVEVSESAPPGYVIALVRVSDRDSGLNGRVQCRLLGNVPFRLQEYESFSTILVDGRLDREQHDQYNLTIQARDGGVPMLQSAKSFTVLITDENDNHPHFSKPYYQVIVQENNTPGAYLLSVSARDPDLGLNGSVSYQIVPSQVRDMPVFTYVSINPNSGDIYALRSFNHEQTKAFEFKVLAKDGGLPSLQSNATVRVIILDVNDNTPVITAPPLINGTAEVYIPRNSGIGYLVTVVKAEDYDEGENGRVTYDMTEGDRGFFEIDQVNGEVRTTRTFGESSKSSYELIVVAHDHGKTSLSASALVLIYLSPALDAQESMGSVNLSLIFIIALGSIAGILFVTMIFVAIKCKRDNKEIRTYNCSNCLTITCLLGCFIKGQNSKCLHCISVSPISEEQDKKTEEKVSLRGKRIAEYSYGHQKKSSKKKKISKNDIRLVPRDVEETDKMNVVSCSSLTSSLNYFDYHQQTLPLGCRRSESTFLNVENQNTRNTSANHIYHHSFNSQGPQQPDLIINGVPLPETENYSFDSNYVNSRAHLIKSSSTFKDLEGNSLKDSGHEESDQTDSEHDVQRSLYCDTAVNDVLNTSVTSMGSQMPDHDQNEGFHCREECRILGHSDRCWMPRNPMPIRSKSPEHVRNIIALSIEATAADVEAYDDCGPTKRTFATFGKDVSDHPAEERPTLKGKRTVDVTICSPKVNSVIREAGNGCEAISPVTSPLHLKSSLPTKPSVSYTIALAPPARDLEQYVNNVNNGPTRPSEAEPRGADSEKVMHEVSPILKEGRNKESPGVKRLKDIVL

T2: HA-NOVA1 (UniProt P51513)
T2 sequence: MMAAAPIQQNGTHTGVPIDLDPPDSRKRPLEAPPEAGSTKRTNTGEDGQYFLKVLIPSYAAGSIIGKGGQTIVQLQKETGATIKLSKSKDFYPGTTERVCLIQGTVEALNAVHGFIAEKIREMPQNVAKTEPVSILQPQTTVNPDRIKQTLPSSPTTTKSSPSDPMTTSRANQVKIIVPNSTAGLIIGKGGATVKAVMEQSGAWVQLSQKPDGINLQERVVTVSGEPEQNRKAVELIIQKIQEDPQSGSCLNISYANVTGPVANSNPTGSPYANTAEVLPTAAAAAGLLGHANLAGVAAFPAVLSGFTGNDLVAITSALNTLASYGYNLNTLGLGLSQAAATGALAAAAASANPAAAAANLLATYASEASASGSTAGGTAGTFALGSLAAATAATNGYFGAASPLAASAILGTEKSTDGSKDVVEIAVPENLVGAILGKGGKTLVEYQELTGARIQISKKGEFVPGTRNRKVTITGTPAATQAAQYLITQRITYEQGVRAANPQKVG


How the values were obtained:
[1] = target: T1, PCDH19-V5 (full-length protocadherin-19 with V5 tag) (human); assay: co-IP; HEK 293FT cells co-transfected, lysed in modified RIPA buffer; IP with anti-V5 (or control IgG) overnight at 4°C, protein A-agarose; blots probed for V5 or HA
[2] = target: T2, HA-NOVA1; assay: co-IP; HEK cells co-transfected with CTF-V5 and HA-LSD1, HA-nLSD1 or HA-NOVA1, modified RIPA buffer; CTF-V5 co-immunoprecipitated by the HA-tagged proteins (Figure S4D)

Row | Binder | binding [1] | binding [2]
1 | HA-NOVA1 (protein, UniProt P51513 1-507) MMAAAPIQQNGTHTGVPIDLDPPDSRKRPLEAPPEAGSTKRTNTGEDGQYFLKVLIPSYAAGSIIGKGGQTIVQLQKETGATIKLSKSKDFYPGTTERVCLIQGTVEALNAVHGFIAEKIREMPQNVAKTEPVSILQPQTTVNPDRIKQTLPSSPTTTKSSPSDPMTTSRANQVKIIVPNSTAGLIIGKGGATVKAVMEQSGAWVQLSQKPDGINLQERVVTVSGEPEQNRKAVELIIQKIQEDPQSGSCLNISYANVTGPVANSNPTGSPYANTAEVLPTAAAAAGLLGHANLAGVAAFPAVLSGFTGNDLVAITSALNTLASYGYNLNTLGLGLSQAAATGALAAAAASANPAAAAANLLATYASEASASGSTAGGTAGTFALGSLAAATAATNGYFGAASPLAASAILGTEKSTDGSKDVVEIAVPENLVGAILGKGGKTLVEYQELTGARIQISKKGEFVPGTRNRKVTITGTPAATQAAQYLITQRITYEQGVRAANPQKVG | no binding | 
2 | CTF-V5 (entire human PCDH19 C-terminal fragment with C-terminal V5 tag) (domain or fragment, UniProt Q8TAB3-1 700-1148) AIKCKRDNKEIRTYNCSNCLTITCLLGCFIKGQNSKCLHCISVSPISEEQDKKTEEKVSLRGKRIAEYSYGHQKKSSKKKKISKNDIRLVPRDVEETDKMNVVSCSSLTSSLNYFDYHQQTLPLGCRRSESTFLNVENQNTRNTSANHIYHHSFNSQGPQQPDLIINGVPLPETENYSFDSNYVNSRAHLIKSSSTFKDLEGNSLKDSGHEESDQTDSEHDVQRSLYCDTAVNDVLNTSVTSMGSQMPDHDQNEGFHCREECRILGHSDRCWMPRNPMPIRSKSPEHVRNIIALSIEATAADVEAYDDCGPTKRTFATFGKDVSDHPAEERPTLKGKRTVDVTICSPKVNSVIREAGNGCEAISPVTSPLHLKSSLPTKPSVSYTIALAPPARDLEQYVNNVNNGPTRPSEAEPRGADSEKVMHEVSPILKEGRNKESPGVKRLKDIVL |  | no binding
